# Primary screen of a compound library

By UniProt entry, the sequences of proteins in these tests, tags left out.
UniProt P9WPC5, whole entry: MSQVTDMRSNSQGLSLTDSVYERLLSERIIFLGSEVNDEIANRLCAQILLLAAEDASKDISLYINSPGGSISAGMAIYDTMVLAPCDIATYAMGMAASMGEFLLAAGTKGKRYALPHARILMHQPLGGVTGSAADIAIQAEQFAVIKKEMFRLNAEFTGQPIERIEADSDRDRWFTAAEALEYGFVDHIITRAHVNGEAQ
UniProt P9WPC3, whole entry partner: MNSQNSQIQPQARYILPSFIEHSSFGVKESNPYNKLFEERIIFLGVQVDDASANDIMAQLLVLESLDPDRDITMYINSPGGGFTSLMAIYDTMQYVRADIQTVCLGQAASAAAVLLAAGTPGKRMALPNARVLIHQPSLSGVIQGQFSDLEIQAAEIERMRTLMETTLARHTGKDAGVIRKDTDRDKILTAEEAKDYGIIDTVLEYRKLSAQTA
UniProt I6X8D2, whole entry: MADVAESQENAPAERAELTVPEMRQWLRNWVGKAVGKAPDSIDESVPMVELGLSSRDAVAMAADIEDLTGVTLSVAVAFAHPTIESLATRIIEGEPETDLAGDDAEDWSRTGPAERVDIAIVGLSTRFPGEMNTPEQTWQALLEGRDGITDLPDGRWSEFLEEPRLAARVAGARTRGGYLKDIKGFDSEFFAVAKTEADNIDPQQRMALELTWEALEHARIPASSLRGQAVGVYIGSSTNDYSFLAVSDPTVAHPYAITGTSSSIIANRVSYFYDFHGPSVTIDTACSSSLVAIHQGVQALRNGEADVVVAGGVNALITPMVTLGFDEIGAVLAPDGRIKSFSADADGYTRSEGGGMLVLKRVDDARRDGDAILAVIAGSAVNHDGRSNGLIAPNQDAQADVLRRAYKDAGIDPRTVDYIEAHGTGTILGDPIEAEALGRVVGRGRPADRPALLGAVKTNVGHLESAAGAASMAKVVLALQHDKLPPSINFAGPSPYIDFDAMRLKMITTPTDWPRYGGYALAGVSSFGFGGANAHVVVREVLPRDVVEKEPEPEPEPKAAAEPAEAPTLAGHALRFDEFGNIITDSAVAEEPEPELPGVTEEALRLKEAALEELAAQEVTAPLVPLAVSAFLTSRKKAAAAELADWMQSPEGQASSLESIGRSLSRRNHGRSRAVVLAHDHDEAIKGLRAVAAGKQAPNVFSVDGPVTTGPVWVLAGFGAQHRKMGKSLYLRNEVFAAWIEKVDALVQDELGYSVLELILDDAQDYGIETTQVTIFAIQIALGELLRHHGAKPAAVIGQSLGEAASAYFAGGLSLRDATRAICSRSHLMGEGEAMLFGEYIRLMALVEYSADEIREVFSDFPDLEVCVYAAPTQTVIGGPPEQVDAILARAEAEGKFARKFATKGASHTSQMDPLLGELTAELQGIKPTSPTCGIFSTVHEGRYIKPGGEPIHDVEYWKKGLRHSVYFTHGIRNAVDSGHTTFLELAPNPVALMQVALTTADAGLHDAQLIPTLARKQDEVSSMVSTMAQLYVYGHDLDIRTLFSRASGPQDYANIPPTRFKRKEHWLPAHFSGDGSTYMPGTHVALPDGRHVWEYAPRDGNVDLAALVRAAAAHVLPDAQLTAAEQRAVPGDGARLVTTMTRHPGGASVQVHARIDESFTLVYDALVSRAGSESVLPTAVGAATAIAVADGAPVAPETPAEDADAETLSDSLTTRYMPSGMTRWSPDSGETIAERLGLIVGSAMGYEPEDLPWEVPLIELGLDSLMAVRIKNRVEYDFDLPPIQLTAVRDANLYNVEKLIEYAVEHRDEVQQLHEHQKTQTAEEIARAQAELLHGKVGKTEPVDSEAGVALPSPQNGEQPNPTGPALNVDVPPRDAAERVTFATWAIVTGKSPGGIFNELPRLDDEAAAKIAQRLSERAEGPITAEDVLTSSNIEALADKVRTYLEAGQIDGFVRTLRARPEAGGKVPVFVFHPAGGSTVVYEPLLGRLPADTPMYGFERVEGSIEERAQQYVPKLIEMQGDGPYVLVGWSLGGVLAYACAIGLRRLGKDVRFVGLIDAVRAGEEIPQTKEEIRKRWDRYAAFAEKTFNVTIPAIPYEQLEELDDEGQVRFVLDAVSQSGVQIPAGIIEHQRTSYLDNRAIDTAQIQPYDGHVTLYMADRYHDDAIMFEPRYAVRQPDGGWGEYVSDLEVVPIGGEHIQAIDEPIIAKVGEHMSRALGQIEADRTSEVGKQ

From ChEMBL document CHEMBL3988442, “University of Dundee, Small-Polar-MMV Screening Library” (2021).

Leishmania in macrophages: 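Cell assay of Leishmania donovani living inside macrophages; the read-out is not stated. Concentration: 30 µM. The record gives no direction; compounds that gave an IC50 in retests scored well above the rest, so higher reads as stronger inhibition. Of about 69,000 compounds tested this way, about 1,000 (1.5%) reached 50% or more in at least one test.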
Toxoplasma: 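Assay of Toxoplasma gondii numbers, read through their beta-galactosidase reporter with a colour substrate. Concentration: 10 µM. Higher reads as fewer parasites (inferred from which compounds were picked for retests). Size under these conditions: about 67,000 compounds, about 260 of them at 50% or above in at least one test.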
ClpP1P2: 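ClpP1P2, Mycobacterium tuberculosis (UniProt P9WPC5 and UniProt P9WPC3). Protease assay of ClpP1P2, read by the AMC dye that it sets free. Compounds at 50 µM. Higher reads as stronger inhibition, judged from the few compounds that gave an IC50. Most other retested compounds had strongly negative values. Of about 69,000 compounds tested this way, about 10 (0.015%) reached 50% or more in at least one test.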
T. brucei: 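Whole-parasite assay of Trypanosoma brucei over 72 hours; the read-out is not stated. Concentration: 30 µM. Higher reads as stronger inhibition (inferred: compounds with an IC50 in retests scored well above the rest). Values scatter widely below zero; nearly all retest evidence comes from the higher of the two concentrations used. About 64,000 compounds were tested under these conditions; 1.5% (about 940) showed 50% or more at least once.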
Pks13 thioesterase: 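Enzyme assay of the thioesterase domain of polyketide synthase 13; the read-out is not stated. Target: Polyketide synthase Pks13, Mycobacterium tuberculosis (UniProt I6X8D2). Tested at 30 µM. The record gives no direction; the compounds picked for IC50 retests had high values, so higher reads as stronger inhibition. About 67,000 compounds were tested under these conditions; 0.46% (about 300) showed 50% or more at least once.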

Each number is a percent effect as filed. How 0% and 100% were set is not recorded. Most values in the screen are low, and negative values occur. The compounds are a random part of those screened.

For CC(C)(C)c1cc(=O)[nH]c(C2(N)CCCCC2)n1.Cl the result was Leishmania in macrophages: 22.69%; Toxoplasma: 2.64%; T. brucei: -67.07%.
For O=C(Cc1cccc(F)c1)NCCCNC(=O)c1cccc(O)c1 the result was Leishmania in macrophages: -3.64%; Toxoplasma: 12.45%; ClpP1P2: -7.024%; T. brucei: -2.56%; Pks13 thioesterase: -9.662%.
For Cc1ncsc1CN1C[C@H](OCC(C)C)[C@H]2OCCC[C@H]21 the result was ClpP1P2: -5.408%; Pks13 thioesterase: -11.38%.
For [H][C@]12CC[C@]([H])(CN(C(=O)COCc3nc4cc(F)ccc4[nH]3)C1)N(C)C2 the result was Leishmania in macrophages: 0.6092%; Toxoplasma: 9.973%; T. brucei: -9.559%.
For NC(=O)Cn1ccc(O)c(Cc2ccc(Cl)cc2Cl)c1=O the result was Leishmania in macrophages: -4.948%; Toxoplasma: 3.198%; ClpP1P2: -18.63%; Pks13 thioesterase: -9.1%.
For COC(=O)c1ccc(S(=O)(=O)NCC(C)(O)c2cccs2)cc1 (stereo not shown) the result was Leishmania in macrophages: -1.001%; Toxoplasma: 3.521%; ClpP1P2: 5.094%; T. brucei: -12.13%; Pks13 thioesterase: -38.71%.
For O=S(=O)(N1CCCCC1)N1CCC(Oc2cnccn2)CC1 the result was Leishmania in macrophages: -14.54%; Toxoplasma: -2.554%; ClpP1P2: 4.875%; T. brucei: 2.045%; Pks13 thioesterase: 0.5727%.
For Cc1ccc(C(=O)N2CCc3ncnc(-c4cnn(C)c4)c3CC2)cn1.O=C(O)C(F)(F)F the result was Leishmania in macrophages: -3.082%; Toxoplasma: 12.11%; T. brucei: -32.51%.
For COc1cc(F)ccc1N1CCN(Cc2nc(C)c(C)o2)CC1 the result was Leishmania in macrophages: 19.64%; Toxoplasma: 4.909%; ClpP1P2: -1.376%; T. brucei: -32.45%; Pks13 thioesterase: -51.47%.
For CCS(=O)(=O)N1CCC2(CC1)CCn1c(-c3cnn(C)c3)cnc12.O=C(O)C(F)(F)F the result was Leishmania in macrophages: 40.68%; Toxoplasma: -2.066%; T. brucei: 3.105%.
For O=C(c1ccccc1)C1CCN(c2cncc(-n3cccn3)n2)CC1 the result was Leishmania in macrophages: -39.74%; Toxoplasma: -4.126%; ClpP1P2: 8.48%; T. brucei: -84.89%; Pks13 thioesterase: 75.5%.
For O=C(C1CC(F)(F)C1)N1C[C@@H]2CN(Cc3ccoc3)CCO[C@@H]2C1 the result was ClpP1P2: 3.103%; Pks13 thioesterase: -7.808%.
For O=C1NCC(C(=O)Nc2ncc(Cc3ccccc3F)s2)N1 (stereo not shown) the result was Leishmania in macrophages: 16.72%; Toxoplasma: -1.248%; ClpP1P2: -1.736%; T. brucei: 15.07%; Pks13 thioesterase: -18.72%.
For Cc1sc(-n2cnnn2)c(C(=O)NC(C)C)c1C the result was Leishmania in macrophages: 1.146%; ClpP1P2: -12.7%; T. brucei: -24.91%; Pks13 thioesterase: -1.812%.
For CN(C)C(=O)COC1COC2(CCN(c3ncccn3)CC2)C1 (stereo not shown) the result was Leishmania in macrophages: 64.89%; Toxoplasma: 3.566%; ClpP1P2: 4.252%; T. brucei: -0.9934%; Pks13 thioesterase: -6.078%.
For CC(=O)NC1(C(=O)N2CCCN(c3cccnn3)CC2)CCCCC1 the result was Leishmania in macrophages: 18.62%; Toxoplasma: -15.82%; ClpP1P2: -10%; T. brucei: 14.82%; Pks13 thioesterase: 7.36%.

Once more, the final 2:

Compound,Leishmania in macrophages,Toxoplasma,ClpP1P2,T. brucei,Pks13 thioesterase
CN(C)C(=O)COC1COC2(CCN(c3ncccn3)CC2)C1 (stereo not shown),64.89,3.566,4.252,-0.9934,-6.078
CC(=O)NC1(C(=O)N2CCCN(c3cccnn3)CC2)CCCCC1,18.62,-15.82,-10,14.82,7.36